Results as given in PubChem BioAssay AID2685 (National Center for Advancing Translational Sciences (NCATS), 2010).
This is one part of the list. Further columns of the screen follow, without active or inactive calls. The list favours compounds with an active or inconclusive main result. Potencies come from curve fits of mixed quality, noted in brackets.

Assay: qHTS Assay for Lipid Storage Modulators in Drosophila S3 Cells;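 for cell number change: cells counted by Cell Tracker Red CMTPX staining in the red channel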
Conditions: BODIPY lipid droplet fluorescence, 18-24 h; for cell number change: measured here: cell count max response, cells fed with added oleic acid
In short: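 Drosophila S3 cells loaded with oleic acid (400 uM, as added) and compounds at several concentrations; lipid droplets imaged by 488-nm laser-scanning cytometry, 500–530 nm intensity and object ratio to cell channel. Percent activity normalized to 20 uM Triacsin C.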

[1] = measured here: cell number channel AC50, cells fed with added oleic acid
[2] = measured here: lipid fluorescence (Fed channel) AC50, cells fed with added oleic acid

| SMILES | cell number change [%] | AC50 [1] | AC50 [2] |
| --- | --- | --- | --- |
| CCOC(=O)c1csc(NC(=O)COc2ccc(Cl)cc2Cl)n1 | 35 | 23.1 µM [rising, single point] |  |
| Cc1ccc(S(=O)(=O)n2nc(-c3cccnc3)nc2N)cc1 | 11.5 |  |  |
| CCOC(=O)c1oc2ccccc2c1NC(=O)CN1CCN(C)CC1 | 2.18 |  |  |
| Cn1cccc1C(=O)NC(=O)CSc1nnc(C2CC2)n1-c1ccccc1 |  | 1.64 µM [rising, partial curve, poor fit] |  |
| S=C(Nc1ccc(Cl)cc1)c1nc2ccccc2[nH]1 | 2.73 |  | 14.6 µM [falling, single point] |
| COc1ccc(C(=O)NCc2nnc(SCC(=O)N3CCC(C)CC3)o2)cc1 | 2.44 |  | 0.731 µM [falling, single point] |
| CC(C)C[C@H](NC(=O)c1nc[nH]c1C(=O)N1CCNCC1)C(=O)OC(C)(C)C | 23.2 |  |  |
| Cc1ccc(/C=C/C(=O)O)cc1S(=O)(=O)Nc1ccccc1C(=O)O | 15 |  | 0.146 µM [rising, single point] |
| Cc1ccc(C(=O)Nc2cccc(NC(=O)CN3CCCCC3)c2)cc1 | 7.33 |  | 6.51 µM [rising, partial curve] |
| CCc1ccccc1NC(=O)CNC(=O)CNC(=O)C1CCCCC1 | 6.6 |  | 0.82 µM [falling, single point] |
| COc1ccc(C2N(c3ccc(Cl)cc3)C(=O)C3CCCN32)cc1 (stereo not drawn) | 102 | 16.4 µM [rising, single point] | 29.1 µM [rising, partial curve] |
| Cc1c(C(C)(C(=O)O)c2c(C)n(C)c3ccccc23)c2ccccc2n1C |  |  | 1.3 µM [rising, full curve, poor fit] |
| C=C(C)COc1ccc(-c2nc(N)ncc2Oc2ccccc2OCC)c(O)c1 | 85.3 | 4.11 µM [rising, full curve] | 3.26 µM [rising, full curve] |
| CCOC(=O)N1CCN(C(=O)c2cccc(F)c2)CC1 | 2.81 |  | 0.00461 µM [falling, full curve, poor fit] |
| CN1CCN(C(=O)c2ccc(NS(=O)(=O)c3cccc([N+](=O)[O-])c3)cc2)CC1 | 8.5 |  |  |
| COc1ccc(/C=N/NC(=O)c2ccoc2C)cc1OC | 23.6 |  | 16.4 µM [rising, partial curve] |
| CC(C)CC(=O)O/N=C1\C(=O)N(Cc2ccc(Cl)cc2)c2ccc([N+](=O)[O-])cc21 | -69.5 | 20.6 µM [falling, single point] | 23.1 µM [falling, single point] |
| CC(C(=O)NCC1CCCO1)c1ccc([N+](=O)[O-])cc1 (stereo not drawn) | -41.4 |  |  |
| COc1cc(S(=O)(=O)N2CCCCC2)ccc1NC(=O)Cc1ccccc1 | 42.4 | 0.206 µM [rising, full curve] | 1.64 µM [rising, partial curve] |
| Cc1ccn2c(CNCc3cnn(C)c3)c(C(=O)N3CCCCCC3)nc2c1 | 6.23 |  | 29.1 µM [falling, single point] |

Part of the list above in order of molecular weight, rising.

| SMILES | cell number change [%] | AC50 [1] | AC50 [2] |
| --- | --- | --- | --- |
| S=C(Nc1ccc(Cl)cc1)c1nc2ccccc2[nH]1 | 2.73 |  | 14.6 µM [falling, single point] |
| CCc1ccccc1NC(=O)CNC(=O)CNC(=O)C1CCCCC1 | 6.6 |  | 0.82 µM [falling, single point] |
| Cc1c(C(C)(C(=O)O)c2c(C)n(C)c3ccccc23)c2ccccc2n1C |  |  | 1.3 µM [rising, full curve, poor fit] |

Later entries.

| SMILES | cell number change [%] | AC50 [1] | AC50 [2] |
| --- | --- | --- | --- |
| O=C(COC(=O)c1nc(Cl)ccc1Cl)Nc1ccc(Cl)cn1 | 6.98 | 6.51 µM [falling, single point] | 6.51 µM [falling, single point] |
| COc1ccc(OCC#CCN2CC(C)OC(C)C2)cc1 (stereo not drawn) | 4.07 |  | 0.116 µM [falling, full curve, poor fit] |
| COc1ccc(-c2nn(C)c3sc(C(=O)N4CCOCC4)cc23)cc1OC | 12.8 | 0.0058 µM [rising, full curve, poor fit] | 0.92 µM [rising, partial curve, poor fit] |
| O=C(OCc1ccccc1)Oc1cncc(C(=O)O)c1 | -5.01 |  | 0.0291 µM [falling, full curve, poor fit] |
| COc1ccc(OCC(=O)Nc2cccc(NC(=O)COc3ccc(OC)cc3)n2)cc1 | -17.3 |  | 5.8 µM [rising, partial curve] |
| O=C(CSc1nnnn1-c1ccccc1)Nc1ncc(Cc2cccc(Cl)c2Cl)s1 | 6.91 |  | 8.2 µM [rising, partial curve] |
| O=[N+]([O-])c1ccc(S(=O)(=O)Nc2cccc(-c3ccc(N4CCOCC4)nn3)c2)cc1 | 40.9 | 9.2 µM [rising, partial curve, poor fit] | 0.82 µM [rising, partial curve] |
| O=C(Nc1ccc2ncccc2c1)c1ccccc1 | 15.8 |  |  |
| COc1ccccc1NC(=O)CSc1nnc(C)n1Cc1ccccc1 | -5.16 |  | 0.82 µM [rising, full curve] |
| COCCNC(=O)C(c1ccc(OC)cc1)N(CCOC)C(=O)CCC(=O)Nc1nccs1 (stereo not drawn) | 18 |  | 29.1 µM [rising, single point] |
| Cc1cc(C)cc(NS(=O)(=O)c2cc(Br)cnc2N)c1 | -61.1 | 16.4 µM [falling, single point] |  |
| COc1ccc(/C=C(\NC(=O)c2ccccc2)C(=O)NCCC(=O)O)cc1 | -45.5 | 14.6 µM [falling, partial curve] | 1.84 µM [falling, partial curve] |
| Nc1nonc1-n1nnc(C(=O)N/N=C/c2ccncc2)c1CSc1ccc(Cl)cc1 |  |  | 18.4 µM [falling, single point] |
| CC1CC(c2ccccc2)n2nc(N3C(=O)c4ccccc4C3=O)nc2N1 (stereo not drawn) | -28.7 | 1.3 µM [falling, full curve, poor fit] | 2.91 µM [falling, full curve] |
| O=C(CCc1ccccc1)NCC(=O)N/N=C/c1ccc2c(c1)OCO2 | 30.1 | 0.116 µM [rising, partial curve] | 9.2 µM [rising, partial curve] |
| CCOC(=O)C1CCN(c2cc3c(cc2NC(=O)c2ccccc2Br)n(C)c(=O)n3C)CC1 |  |  | 29.1 µM [falling, single point] |
| O=C(Nc1nc(-c2ccccc2)c(-c2ccccc2)s1)c1ccc(S(=O)(=O)N2CCCC2)cc1 | -13.5 |  | 29.1 µM [falling, single point] |
| Cc1csc2nc(CNC(=O)c3cccc(C(F)(F)F)c3)cn12 | 28.4 |  |  |
| CC1CCCC(NC(=O)COC(=O)c2cccc(S(=O)(=O)N3CCCCC3)c2)C1C (stereo not drawn) | 1.82 |  | 0.00517 µM [rising, full curve, poor fit] |
| COc1ccc(Cl)cc1-c1nc(-c2ccc(Br)o2)no1 | -23.1 |  |  |

| SMILES | cell number change [%] | AC50 [1] | AC50 [2] |
| --- | --- | --- | --- |
| CCCc1cc(=O)oc2cc(C)cc(OCC(=O)Nc3ccc(CN4CCOCC4)cc3)c12 | -0.943 |  | 29.1 µM [falling, single point] |
| O=C(NCc1ccccc1)Nc1cccn(Cc2cccc(F)c2)c1=O | 5.26 |  | 0.164 µM [rising, full curve, poor fit] |
| CC1CCN(S(=O)(=O)c2ccc(C(=O)N3CCCCC3C(=O)O)cc2)CC1 (stereo not drawn) | -33.8 | 25.9 µM [falling, single point] | 25.9 µM [falling, single point] |
| Cc1ccc2cccc(NC(=O)c3ccc(Br)o3)c2n1 | -17.4 |  | 2.31 µM [rising, partial curve] |
| CCOc1ccc(CC(=O)N2N=C(C)CC2(O)C(F)(F)F)cc1 (stereo not drawn) | 20.1 |  | 1.46 µM [rising, partial curve, poor fit] |
| Cc1nc2ccc(Nc3nc4cc(S(=O)(=O)N5CCOCC5)ccc4o3)cc2s1 | 69.7 | 2.31 µM [rising, partial curve, poor fit] | 1.3 µM [rising, full curve] |
| CN(C)S(=O)(=O)c1cccc(NC(=O)c2ccc3nccnc3c2)c1 | 9.59 |  | 4.11 µM [rising, single point] |
| CCCCOc1ccc(-c2ncc(Cl)cn2)cc1 | -32.1 | 2.91 µM [falling, partial curve] | 6.51 µM [rising, single point] |
| Cc1ccn2cc(CNS(=O)(=O)c3cccs3)nc2c1 | 12.5 |  | 32.6 µM [rising, single point] |
| COc1ccc(-c2cn3cccnc3n2)cc1 | 12.1 | 0.411 µM [falling, full curve, poor fit] |  |
| Cc1[nH]n(-c2ccccc2)c(=O)c1C(=O)Nc1ccccc1 | -2.25 |  | 0.82 µM [rising, full curve] |
| CC(=O)NC(=C(Cl)Cl)S(=O)(=O)c1ccccc1 | -19.1 |  |  |
| Nn1c(C2CCCCC2)nc2ccccc2c1=O | -17.5 |  |  |
| Cc1c(NC(=O)c2ccccc2N)cccc1C(=O)O | 1.61 |  | 0.00517 µM [falling, full curve, poor fit] |
| CC(=O)C(Cc1ccc(Cl)nc1)(Cc1ccc(Cl)nc1)C(C)=O | -24.9 | 0.82 µM [falling, single point] | 0.92 µM [falling, full curve] |
| CSCC[C@H](NC(=O)[C@H](Cc1ccccc1)n1c(=O)[nH]c2ccccc2c1=O)C(=O)N1CCC[C@H]1C(=O)O | 32.4 | 0.116 µM [rising, full curve, poor fit] |  |
| COc1ccc(CCNC(=O)COc2ccc(-c3ccccc3)cc2)cc1OC | -30.6 | 13 µM [falling, single point] | 13 µM [falling, partial curve] |
| CC(CNC(=O)CN1C(=O)CCSc2ccccc21)c1ccccc1 (stereo not drawn) |  |  | 6.51 µM [rising, single point] |
| C=CCOc1ccccc1/C=N/O | 19.9 |  | 0.00461 µM [falling, full curve, poor fit] |
